Laboratory results reported in article PMC10970367.
No constants are given. Whether binding was seen depends on the method and setting. Binding seen in cells or lysates may run through a third protein. These calls come from enrichment with a bait or labelling near it, and not all partners need be listed.

Chains of the proteins cited; added tags and fusions are not shown. Lines headed by an entry give the natural chain unless they say otherwise; changes in a name come on top. A line that says so, or that is headed by a name, gives the form on record, which may keep a tag or linker. Residues count along the entry.
UniProt Q13164: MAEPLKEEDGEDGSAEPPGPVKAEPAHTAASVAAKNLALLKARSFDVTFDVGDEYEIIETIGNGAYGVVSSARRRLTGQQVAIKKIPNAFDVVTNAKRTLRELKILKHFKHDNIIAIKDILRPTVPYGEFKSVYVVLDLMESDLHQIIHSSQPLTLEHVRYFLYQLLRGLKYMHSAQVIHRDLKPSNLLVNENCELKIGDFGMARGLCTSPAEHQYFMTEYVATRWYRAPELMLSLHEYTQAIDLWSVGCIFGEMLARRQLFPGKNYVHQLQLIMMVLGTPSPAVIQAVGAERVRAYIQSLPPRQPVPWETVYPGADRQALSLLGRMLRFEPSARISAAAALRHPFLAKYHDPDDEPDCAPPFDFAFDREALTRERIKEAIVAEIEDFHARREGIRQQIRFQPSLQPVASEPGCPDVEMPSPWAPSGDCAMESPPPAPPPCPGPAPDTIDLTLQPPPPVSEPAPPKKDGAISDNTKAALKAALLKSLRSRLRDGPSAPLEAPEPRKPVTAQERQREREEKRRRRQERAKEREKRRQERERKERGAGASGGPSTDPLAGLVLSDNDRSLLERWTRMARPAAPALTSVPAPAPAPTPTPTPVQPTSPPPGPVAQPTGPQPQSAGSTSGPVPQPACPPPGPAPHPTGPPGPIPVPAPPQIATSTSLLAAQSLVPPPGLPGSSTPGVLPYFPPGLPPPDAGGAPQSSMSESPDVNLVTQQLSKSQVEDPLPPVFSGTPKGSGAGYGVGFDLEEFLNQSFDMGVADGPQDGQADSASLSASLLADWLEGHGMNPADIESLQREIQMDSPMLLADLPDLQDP
kidney glutaminase (KGA), isoform of mitochondrial glutaminase GLS (O94925, residues 55-669): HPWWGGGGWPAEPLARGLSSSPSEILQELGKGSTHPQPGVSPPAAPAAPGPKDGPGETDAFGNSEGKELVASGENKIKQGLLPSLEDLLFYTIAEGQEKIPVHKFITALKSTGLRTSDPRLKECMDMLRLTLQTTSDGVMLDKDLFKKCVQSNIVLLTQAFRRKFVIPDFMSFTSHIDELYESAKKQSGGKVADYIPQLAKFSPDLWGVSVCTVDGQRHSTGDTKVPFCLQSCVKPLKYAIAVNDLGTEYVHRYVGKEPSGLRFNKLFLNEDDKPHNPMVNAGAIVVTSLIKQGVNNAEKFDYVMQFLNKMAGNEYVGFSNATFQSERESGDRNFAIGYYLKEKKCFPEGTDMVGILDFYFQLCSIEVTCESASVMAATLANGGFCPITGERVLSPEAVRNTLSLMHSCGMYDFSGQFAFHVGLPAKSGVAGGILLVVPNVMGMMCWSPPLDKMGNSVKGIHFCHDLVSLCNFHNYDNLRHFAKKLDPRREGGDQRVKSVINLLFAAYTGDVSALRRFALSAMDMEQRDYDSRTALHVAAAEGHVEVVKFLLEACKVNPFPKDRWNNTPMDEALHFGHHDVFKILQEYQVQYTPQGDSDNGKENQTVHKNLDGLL
glutaminase C (GAC), isoform of mitochondrial glutaminase GLS (O94925-3, form named): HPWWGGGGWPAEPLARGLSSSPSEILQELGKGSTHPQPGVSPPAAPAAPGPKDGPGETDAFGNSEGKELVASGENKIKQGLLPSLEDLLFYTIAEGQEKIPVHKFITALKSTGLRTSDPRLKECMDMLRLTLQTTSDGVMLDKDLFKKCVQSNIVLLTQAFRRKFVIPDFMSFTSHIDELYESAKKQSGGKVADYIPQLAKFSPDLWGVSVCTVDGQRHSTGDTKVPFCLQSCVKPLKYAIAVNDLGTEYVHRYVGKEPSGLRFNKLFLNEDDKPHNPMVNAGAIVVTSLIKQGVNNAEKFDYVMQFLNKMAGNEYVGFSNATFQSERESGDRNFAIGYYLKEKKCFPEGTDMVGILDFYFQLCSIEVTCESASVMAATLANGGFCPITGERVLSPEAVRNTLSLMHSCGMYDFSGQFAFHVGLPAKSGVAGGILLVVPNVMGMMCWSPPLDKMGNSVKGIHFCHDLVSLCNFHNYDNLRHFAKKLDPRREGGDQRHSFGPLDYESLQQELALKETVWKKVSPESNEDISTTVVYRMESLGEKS

Columns and labels:
[1] = target: Extracellular-Signal-Regulated Kinase 5 (ERK5) (human (endogenous in NP9)) (UniProt Q13164); assay: affinity purification with mass spectrometry; immunoaffinity chromatography: NP9 cell extracts on anti-ERK5 C-terminus antibody coupled to CNBr-activated Sepharose 4B, 2 h at 4 °C; eluted with 0.1 M glycine pH 2.6; SDS-PAGE 5-15% gradient, silver stain, MALDI-TOF
[2] = target: Extracellular-Signal-Regulated Kinase 5 (ERK5) (human (endogenous in NP9)) (UniProt Q13164); assay: affinity purification with mass spectrometry; NP9 whole cell extracts (mild lysis buffer) immunoprecipitated with anti-ERK5 N-terminus or C-terminus antibodies, with or without an excess of the competing antigen; SDS-PAGE 5-10% gradient, silver stain, band cut out, MALDI-TOF peptide mass fingerprint (Mascot, Swiss-Prot)

binding [1] | binding [2] | Substance
binds | binds | glutaminase C (GAC), isoform of mitochondrial glutaminase GLS (from UniProt O94925-3 55-598) (enzyme)
binds | binds | kidney glutaminase (KGA), isoform of mitochondrial glutaminase GLS (from UniProt O94925 55-669) (enzyme)
